Consider 1 substance from article PMC6721280.

Chains of the proteins cited; added tags and fusions are not shown.
UniProt P53350: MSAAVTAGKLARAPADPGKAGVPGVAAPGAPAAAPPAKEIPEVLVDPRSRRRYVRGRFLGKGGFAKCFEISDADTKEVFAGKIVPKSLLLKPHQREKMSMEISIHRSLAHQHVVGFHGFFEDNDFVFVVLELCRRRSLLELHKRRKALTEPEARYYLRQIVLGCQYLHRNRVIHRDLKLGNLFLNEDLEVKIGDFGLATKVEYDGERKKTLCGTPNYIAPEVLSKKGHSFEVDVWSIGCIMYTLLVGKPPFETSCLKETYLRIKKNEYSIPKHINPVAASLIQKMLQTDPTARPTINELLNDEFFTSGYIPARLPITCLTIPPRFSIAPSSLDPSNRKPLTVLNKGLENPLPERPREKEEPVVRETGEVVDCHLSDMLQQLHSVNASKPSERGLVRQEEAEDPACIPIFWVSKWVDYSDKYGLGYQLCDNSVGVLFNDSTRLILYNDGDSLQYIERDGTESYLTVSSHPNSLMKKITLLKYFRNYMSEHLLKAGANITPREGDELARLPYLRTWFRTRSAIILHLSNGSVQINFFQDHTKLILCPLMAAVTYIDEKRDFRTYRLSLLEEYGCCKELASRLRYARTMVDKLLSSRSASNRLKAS

No constants are given. Whether binding was seen depends on the method and setting. Binding seen in cells or lysates may run through a third protein. Some entries that bind do so weakly or less than the wild type.

For this experiment, the target named is T1, endogenous NIPA (human (endogenous in DEL, Mac-1, Karpas and SUDHL-1)) (UniProt Q86WB0).
T1 sequence: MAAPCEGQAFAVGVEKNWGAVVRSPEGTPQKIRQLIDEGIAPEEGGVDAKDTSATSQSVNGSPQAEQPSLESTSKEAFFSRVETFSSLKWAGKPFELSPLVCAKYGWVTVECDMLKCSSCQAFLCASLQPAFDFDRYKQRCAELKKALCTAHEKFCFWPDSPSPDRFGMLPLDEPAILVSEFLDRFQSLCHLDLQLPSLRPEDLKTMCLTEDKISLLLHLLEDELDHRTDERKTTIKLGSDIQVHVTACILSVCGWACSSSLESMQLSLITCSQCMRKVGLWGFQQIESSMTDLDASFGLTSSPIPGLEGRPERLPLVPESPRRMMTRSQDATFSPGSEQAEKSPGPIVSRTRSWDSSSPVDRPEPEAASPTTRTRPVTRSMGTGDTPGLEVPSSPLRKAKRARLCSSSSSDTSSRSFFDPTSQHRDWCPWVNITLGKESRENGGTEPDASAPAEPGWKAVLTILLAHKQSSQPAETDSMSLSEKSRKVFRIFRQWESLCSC
Description: co-IP; endogenous proteins in the ALK-positive cell lines Karpas and SUDHL-1; which protein was precipitated is not told.

As for “Polo-like kinase 1 (PLK1) (from UniProt P53350 1-603) (enzyme)”, the binding result is “binds”.
